Reference: patent US20230279123A1
Substitutions are numbered along the chain they refer to. Results are given in words; binding and its absence hold for the method and conditions named. Some binding calls cover weakened binding; strength is not graded here.

The chains behind the UniProt entries cited, without tags or fusion partners. Residues count along the entry.
UniProt P24394, residues 26-232: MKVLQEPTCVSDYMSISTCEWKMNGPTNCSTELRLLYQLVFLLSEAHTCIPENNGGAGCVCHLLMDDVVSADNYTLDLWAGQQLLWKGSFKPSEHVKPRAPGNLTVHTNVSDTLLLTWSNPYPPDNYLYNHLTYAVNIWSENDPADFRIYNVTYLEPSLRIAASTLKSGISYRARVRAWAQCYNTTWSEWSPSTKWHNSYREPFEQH

B1: humanized anti-IL-4Rα single domain antibody 4E9-V6 (VHH)
VHH: QVQLVESGGGLVQPGGSLRLSCAASGDFYCMAWFRQAPGKEREAVATIRSGGRSTYYADSVKGRFTISRDNSKNTLYLQMNSLKAEDTAVYYCAVGVDGNCRNYWGQGTLVTVSS
B2: humanized anti-IL-4Rα single domain antibody 4E9-V10 (VHH)
VHH: B1 VHH with T47A

Biological target: IL-4Rα (receptor protein / antigen) (UniProt P24394)
Test: BLI (Octet 96)

| binding | Binder |
| --- | --- |
| binds | B1 |
| binds | B2 |
